These results are taken from paper PMC9279507.

Sequences of proteins named here, by UniProt entry; tags and fusion partners are left off. Residues count along the entry.
UniProt P42224, 132-713: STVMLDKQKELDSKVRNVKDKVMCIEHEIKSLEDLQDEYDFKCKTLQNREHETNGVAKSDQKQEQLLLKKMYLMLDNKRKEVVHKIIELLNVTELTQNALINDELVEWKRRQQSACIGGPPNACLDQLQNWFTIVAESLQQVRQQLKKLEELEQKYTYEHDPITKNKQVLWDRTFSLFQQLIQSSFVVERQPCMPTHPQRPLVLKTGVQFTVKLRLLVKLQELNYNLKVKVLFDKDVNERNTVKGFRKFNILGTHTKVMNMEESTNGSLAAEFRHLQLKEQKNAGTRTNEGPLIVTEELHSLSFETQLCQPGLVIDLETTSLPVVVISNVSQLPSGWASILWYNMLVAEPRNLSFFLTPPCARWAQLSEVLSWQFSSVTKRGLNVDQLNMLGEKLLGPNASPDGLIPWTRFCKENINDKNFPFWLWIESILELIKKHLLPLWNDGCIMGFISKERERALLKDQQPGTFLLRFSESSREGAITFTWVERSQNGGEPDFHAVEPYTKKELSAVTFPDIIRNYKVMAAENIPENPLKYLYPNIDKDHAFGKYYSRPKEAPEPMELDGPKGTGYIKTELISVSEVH

For some assays here: Negatives hold for the conditions tested. For at least one entry, the source does not settle the construct or the ends of the probe.

The test system of series [1] is pSTAT1d (phosphorylated STAT1 core dimer) + TgIST-T2. The series is described as follows: competition with a labelled probe. Conditions: excess cold probe competes 2nd GAF; EMSA: 10 mM Tris pH 7.5, 50 mM KCl, 10 mM DTT, 0.125% Tween-20, 0.05 ug poly(dI-dC), 0.025 ug salmon sperm DNA per 20 ul, room temperature, 10 min; recombinant protein; protein details: N-terminal Strep,6xHis; label: unlabeled. Background: In EMSA bound probe runs differently from free probe, usually more slowly.

For series [2] the test system is unchanged. The series is described as follows: EMSA. Conditions: EMSA: 10 mM Tris pH 7.5, 50 mM KCl, 10 mM DTT, 0.125% Tween-20, 0.05 ug poly(dI-dC), 0.025 ug salmon sperm DNA per 20 ul, room temperature, 10 min, recombinant protein, protein details: N-terminal Strep,6xHis, label: IRDye (far-red) 5' on both strands.
Series [3] has as its system pSTAT1d (phosphorylated STAT1 core dimer) + TgIST-R2-GST. The series is described as follows: EMSA. The note with it: supershifted 2nd GAF; EMSA: 10 mM Tris pH 7.5, 50 mM KCl, 10 mM DTT, 0.125% Tween-20, 0.05 ug poly(dI-dC), 0.025 ug salmon sperm DNA per 20 ul, room temperature, 10 min; recombinant protein; protein details: N-terminal Strep,GST; label: IRDye (far-red) 5' on both strands.

In series [4] the target is pSTAT1d (phosphorylated STAT1 core dimer) (UniProt P42224). The series is described as follows: EMSA. Conditions: 60 pmol STAT1 dimer, 0.05 pmol DNA; EMSA: 10 mM Tris pH 7.5, 50 mM KCl, 10 mM DTT, 0.125% Tween-20, 0.05 ug poly(dI-dC), 0.025 ug salmon sperm DNA per 20 ul, room temperature, 10 min; recombinant protein; residues 132-713; protein details: N-terminal Strep; label: IRDye (far-red) 5' on both strands.

As to “GATGTATTTCCCAGAAAAGG (double strand) [GAS cold competitor]”, the binding result in series [1] is “binds”.
As to “GATGTATTTCCCAGAAAAGG (double strand) [GAS probe (Fc-gamma receptor gene)]”, the binding result in series [2] (supershifted 2nd GAF, TgIST-T2 concentration-dependent) is listed as “binds”; in series [3] it was “binds”; in series [4] it was “binds”.
For the sequence “GGGAAAGGGAAACCGAAACTGAAGCC (double strand) [ISRE probe (ISG15)]”, the binding result in series [2] (TgIST-T2 added) is given as “no binding”.
